Reference: PMC7829511
No constants are given. Whether binding was seen depends on the method and setting. Binding seen in cells or lysates may run through a third protein. Some entries that bind do so weakly or less than the wild type.

By UniProt entry, the sequences of proteins in these tests, tags left out.
UniProt P40763: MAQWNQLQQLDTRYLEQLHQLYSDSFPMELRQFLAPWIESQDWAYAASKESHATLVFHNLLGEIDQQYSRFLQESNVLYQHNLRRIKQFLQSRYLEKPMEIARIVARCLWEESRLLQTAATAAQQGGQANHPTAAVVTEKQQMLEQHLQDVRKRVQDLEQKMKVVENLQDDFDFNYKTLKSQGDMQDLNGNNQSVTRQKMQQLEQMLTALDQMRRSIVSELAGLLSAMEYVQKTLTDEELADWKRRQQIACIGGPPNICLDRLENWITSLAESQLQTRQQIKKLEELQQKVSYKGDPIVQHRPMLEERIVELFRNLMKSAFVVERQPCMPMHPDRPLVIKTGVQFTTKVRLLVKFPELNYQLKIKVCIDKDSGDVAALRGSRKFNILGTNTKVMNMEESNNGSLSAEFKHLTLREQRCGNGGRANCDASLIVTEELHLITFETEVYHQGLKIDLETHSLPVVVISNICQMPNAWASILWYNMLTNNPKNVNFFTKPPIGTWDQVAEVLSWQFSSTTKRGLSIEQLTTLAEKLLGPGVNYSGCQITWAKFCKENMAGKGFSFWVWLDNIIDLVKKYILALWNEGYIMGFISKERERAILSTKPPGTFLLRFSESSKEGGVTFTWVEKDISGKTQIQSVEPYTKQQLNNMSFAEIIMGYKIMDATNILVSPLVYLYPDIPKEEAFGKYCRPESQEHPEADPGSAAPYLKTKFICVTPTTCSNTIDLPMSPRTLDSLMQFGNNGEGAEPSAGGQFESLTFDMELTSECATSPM

B1: leukemia inhibitory factor receptor (receptor, UniProt P42702 45-1097)
chain: QKKGAPHDLKCVTNNLQVWNCSWKAPSGTGRGTDYEVCIENRSRSCYQLEKTSIKIPALSHGDYEITINSLHDFGSSTSKFTLNEQNVSLIPDTPEILNLSADFSTSTLYLKWNDRGSVFPHRSNVIWEIKVLRKESMELVKLVTHNTTLNGKDTLHHWSWASDMPLECAIHFVEIRCYIDNLHFSGLEEWSDWSPVKNISWIPDSQTKVFPQDKVILVGSDITFCCVSQEKVLSALIGHTNCPLIHLDGENVAIKIRNISVSASSGTNVVFTTEDNIFGTVIFAGYPPDTPQQLNCETHDLKEIICSWNPGRVTALVGPRATSYTLVESFSGKYVRLKRAEAPTNESYQLLFQMLPNQEIYNFTLNAHNPLGRSQSTILVNITEKVYPHTPTSFKVKDINSTAVKLSWHLPGNFAKINFLCEIEIKKSNSVQEQRNVTIKGVENSSYLVALDKLNPYTLYTFRIRCSTETFWKWSKWSNKKQHLTTEASPSKGPDTWREWSSDGKNLIIYWKPLPINEANGKILSYNVSCSSDEETQSLSEIPDPQHKAEIRLDKNDYIISVVAKNSVGSSPPSKIASMEIPNDDLKIEQVVGMGKGILLTWHYDPNMTCDYVIKWCNSSRSEPCLMDWRKVPSNSTETVIESDEFRPGIRYNFFLYGCRNQGYQLLRSMIGYIEELAPIVAPNFTVEDTSADSILVKWEDIPVEELRGFLRGYLFYFGKGERDTSKMRVLESGRSDIKVKNITDISQKTLRIADLQGKTSYHLVLRAYTDGGVGPEKSMYVVTKENSVGLIIAILIPVAVAVIVGVVTSILCYRKREWIKETFYPDIPNPENCKALQFQKSVCEGSSALKTLEMNPCTPNNVEVLETRSAFPKIEDTEIISPVAERPEDRSDAEPENHVVVSYCPPIIEEEIPNPAADEAGGTAQVIYIDVQSMYQPQAKPEEEQENDPVGGAGYKPQMHLPINSTVEDIAAEEDLDKTAGYRPQANVNTWNLVSPDSPRSIDSNSEIVSFGSPCSINSRQFLIPPKDEDSPKSNGGGWSFTNFFQNKPND
B2: STAT4, Q14765 1-748 (protein)
chain: MSQWNQVQQLEIKFLEQVDQFYDDNFPMEIRHLLAQWIENQDWEAASNNETMATILLQNLLIQLDEQLGRVSKEKNLLLIHNLKRIRKVLQGKFHGNPMHVAVVISNCLREERRILAAANMPVQGPLEKSLQSSSVSERQRNVEHKVAAIKNSVQMTEQDTKYLEDLQDEFDYRYKTIQTMDQSDKNSAMVNQEVLTLQEMLNSLDFKRKEALSKMTQIIHETDLLMNTMLIEELQDWKRRQQIACIGGPLHNGLDQLQNCFTLLAESLFQLRRQLEKLEEQSTKMTYEGDPIPMQRTHMLERVTFLIYNLFKNSFVVERQPCMPTHPQRPLVLKTLIQFTVKLRLLIKLPELNYQVKVKASIDKNVSTLSNRRFVLCGTNVKAMSIEESSNGSLSVEFRHLQPKEMKSSAGGKGNEGCHMVTEELHSITFETQICLYGLTIDLETSSLPVVMISNVSQLPNAWASIIWYNVSTNDSQNLVFFNNPPPATLSQLLEVMSWQFSSYVGRGLNSDQLHMLAEKLTVQSSYSDGHLTWAKFCKEHLPGKSFTFWTWLEAILDLIKKHILPLWIDGYVMGFVSKEKERLLLKDKMPGTFLLRFSESHLGGITFTWVDHSESGEVRFHSVEPYNKGRLSALPFADILRDYKVIMAENIPENPLKYLYPDIPKDKAFGKHYSSQPCEVSRPTERGDKGYVPSVFIPISTIRSDSTEPHSPSDLLPMSPSVYAVLRENLSPTTIETAMKSPYSAE

Columns and labels:
[1] = target: STAT3 (human (endogenous in RKO)) (UniProt P40763); assay: condition: only cells treated with cynaropicrin for 24 h; co-IP; RKO cells treated with cynaropicrin for 24 h; total cell protein precipitated with STAT3 antibody; Western blotting
[2] = target: STAT3 (human (endogenous in RKO)) (UniProt P40763); assay: co-IP; RKO cells treated with (+) or without (-) cynaropicrin for 24 h; total cell protein incubated with STAT3 antibody or STAT4 antibody at 4°C overnight, adsorbed with agarose beads; Western blotting
[3] = target: STAT3 (human (endogenous in RKO)), P40763; assay: as above; conditions: remark: other sources report otherwise

Binder | binding [1] | binding [2] | binding [3]
B1 | no binding | binds | 
B2 |  |  | binds
